# Test results reported in the supplement of paper PMC8728848.
# This is one part of the list.
# B1: EULS2 M1 (Oryza sativa) (protein)
# chain: MVYCRANPNYAMTARNGAVVLAPANPKDEYQHWIKDMRWSTSIKDEEGYPAFALVNKATGQAIKHSLGQSHPVRLVPYNPEVMDESVLWTESRDVGNGFRCIRMVNNIYLNFDAFHGDKYHGGVRDGTDIVLWKLCEGDNQRWKIQPYYILEQKLISEEDLNSAVDHHHHHH
# Key:
# Experiment in all cases: glycan array binding signal (z-score within array); higher = stronger binding
# Settings in all cases: glycan notation: IUPAC condensed, linker removed
# [1] = biological target: Gal(b1-4)GlcNAc(b1-2)[Gal(b1-4)GlcNAc(b1-6)]Man(a1-6)[GlcNAc(b1-4)][Gal(b1-4)GlcNAc(b1-2)Man(a1-3)]Man(b1-4)GlcNAc(b1-4)GlcNAc
# Summary of the method: (§1)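 Glycan array data came from 3228 arrays in the Consortium for Functional Glycomics database, and only arrays with an available protein sequence were kept. Glycan names were put into IUPAC-condensed notation, and columns mapping to the same glycan were averaged. The binding signal is a within-array Z-score, averaged across arrays of one protein sequence run at different concentrations or buffers and across linkers. A negative Z-score can be read as non-binding.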
# [2] = biological target: Gal(b1-4)GlcNAc(b1-2)[Gal(b1-4)GlcNAc(b1-6)]Man(a1-6)[GlcNAc(b1-4)][Gal(b1-4)GlcNAc(b1-2)[Gal(b1-4)GlcNAc(b1-4)]Man(a1-3)]Man(b1-4)GlcNAc(b1-4)[Fuc(a1-6)]GlcNAc
# Summary of the method: as §1
# [3] = biological target: Gal(b1-4)GlcNAc(b1-3)Gal(b1-3)GalNAc
# Summary of the method: as §1
# [4] = biological target: Gal(b1-4)GlcNAc(b1-3)Gal(b1-3)GlcNAc
# Summary of the method: as §1
# [5] = biological target: Gal(b1-4)GlcNAc(b1-3)Gal(b1-4)Glc
# Summary of the method: as §1
# [6] = biological target: Gal(b1-4)GlcNAc(b1-3)Gal(b1-4)GlcNAc
# Summary of the method: as §1
# [7] = biological target: Gal(b1-4)GlcNAc(b1-3)Gal(b1-4)GlcNAc(b1-2)Man(a1-3)[Gal(b1-4)GlcNAc(b1-3)Gal(b1-4)GlcNAc(b1-2)Man(a1-6)]Man(b1-4)GlcNAc(b1-4)GlcNAc
# Summary of the method: as §1
# [8] = biological target: Gal(b1-4)GlcNAc(b1-3)Gal(b1-4)GlcNAc(b1-2)Man(a1-3)[Gal(b1-4)GlcNAc(b1-3)Gal(b1-4)GlcNAc(b1-2)Man(a1-6)]Man(b1-4)GlcNAc(b1-4)[Fuc(a1-6)]GlcNAc
# Summary of the method: as §1
# [9] = biological target: Gal(b1-4)GlcNAc(b1-3)Gal(b1-4)GlcNAc(b1-2)[Gal(b1-4)GlcNAc(b1-3)Gal(b1-4)GlcNAc(b1-6)]Man(a1-6)[Gal(b1-4)GlcNAc(b1-3)Gal(b1-4)GlcNAc(b1-2)Man(a1-3)]Man(b1-4)GlcNAc(b1-4)GlcNAc
# Summary of the method: as §1
# [10] = biological target: Gal(b1-4)GlcNAc(b1-3)Gal(b1-4)GlcNAc(b1-2)[Gal(b1-4)GlcNAc(b1-3)Gal(b1-4)GlcNAc(b1-6)]Man(a1-6)[Gal(b1-4)GlcNAc(b1-3)Gal(b1-4)GlcNAc(b1-2)Man(a1-3)]Man(b1-4)GlcNAc(b1-4)[Fuc(a1-6)]GlcNAc
# Summary of the method: as §1
# [11] = biological target: Gal(b1-4)GlcNAc(b1-3)Gal(b1-4)GlcNAc(b1-3)Gal(b1-4)GlcNAc
# Summary of the method: as §1
# [12] = biological target: Gal(b1-4)GlcNAc(b1-3)Gal(b1-4)GlcNAc(b1-3)Gal(b1-4)GlcNAc(b1-2)Man(a1-3)[Gal(b1-4)GlcNAc(b1-3)Gal(b1-4)GlcNAc(b1-3)Gal(b1-4)GlcNAc(b1-2)Man(a1-6)]Man(b1-4)GlcNAc(b1-4)GlcNAc
# Summary of the method: as §1
# [13] = biological target: Gal(b1-4)GlcNAc(b1-3)Gal(b1-4)GlcNAc(b1-3)Gal(b1-4)GlcNAc(b1-2)Man(a1-3)[Gal(b1-4)GlcNAc(b1-3)Gal(b1-4)GlcNAc(b1-3)Gal(b1-4)GlcNAc(b1-2)Man(a1-6)]Man(b1-4)GlcNAc(b1-4)[Fuc(a1-6)]GlcNAc
# Summary of the method: as §1
# [14] = biological target: Gal(b1-4)GlcNAc(b1-3)Gal(b1-4)GlcNAc(b1-3)Gal(b1-4)GlcNAc(b1-2)[Gal(b1-4)GlcNAc(b1-3)Gal(b1-4)GlcNAc(b1-3)Gal(b1-4)GlcNAc(b1-6)]Man(a1-6)[Gal(b1-4)GlcNAc(b1-3)Gal(b1-4)GlcNAc(b1-3)Gal(b1-4)GlcNAc(b1-2)Man(a1-3)]Man(b1-4)GlcNAc(b1-4)[Fuc(a1-6)]GlcNAc
# Summary of the method: as §1
# [15] = biological target: Gal(b1-4)GlcNAc(b1-3)Gal(b1-4)GlcNAc(b1-3)Gal(b1-4)GlcNAc(b1-3)Gal(b1-4)GlcNAc(b1-2)Man(a1-3)[Gal(b1-4)GlcNAc(b1-3)Gal(b1-4)GlcNAc(b1-3)Gal(b1-4)GlcNAc(b1-3)Gal(b1-4)GlcNAc(b1-2)Man(a1-6)]Man(b1-4)GlcNAc(b1-4)GlcNAc
# Summary of the method: as §1
# [16] = biological target: Gal(b1-4)GlcNAc(b1-3)Gal(b1-4)GlcNAc(b1-3)Gal(b1-4)GlcNAc(b1-3)Gal(b1-4)GlcNAc(b1-2)Man(a1-3)[Gal(b1-4)GlcNAc(b1-3)Gal(b1-4)GlcNAc(b1-3)Gal(b1-4)GlcNAc(b1-3)Gal(b1-4)GlcNAc(b1-2)Man(a1-6)]Man(b1-4)GlcNAc(b1-4)[Fuc(a1-6)]GlcNAc
# Summary of the method: as §1
# [17] = biological target: Gal(b1-4)GlcNAc(b1-3)Gal(b1-4)GlcNAc(b1-3)Gal(b1-4)GlcNAc(b1-3)Gal(b1-4)GlcNAc(b1-2)[Gal(b1-4)GlcNAc(b1-3)Gal(b1-4)GlcNAc(b1-3)Gal(b1-4)GlcNAc(b1-3)Gal(b1-4)GlcNAc(b1-6)]Man(a1-6)[Gal(b1-4)GlcNAc(b1-3)Gal(b1-4)GlcNAc(b1-3)Gal(b1-4)GlcNAc(b1-3)Gal(b1-4)GlcNAc(b1-2)Man(a1-3)]Man(b1-4)GlcNAc(b1-4)[Fuc(a1-6)]GlcNAc
# Summary of the method: as §1
# [18] = biological target: Gal(b1-4)GlcNAc(b1-3)Gal(b1-4)GlcNAc(b1-3)Gal(b1-4)GlcNAc(b1-3)Gal(b1-4)GlcNAc(b1-3)Gal(b1-4)GlcNAc(b1-2)Man(a1-3)[Gal(b1-4)GlcNAc(b1-3)Gal(b1-4)GlcNAc(b1-3)Gal(b1-4)GlcNAc(b1-3)Gal(b1-4)GlcNAc(b1-3)Gal(b1-4)GlcNAc(b1-2)Man(a1-6)]Man(b1-4)GlcNAc(b1-4)GlcNAc
# Summary of the method: as §1
# [19] = biological target: Gal(b1-4)GlcNAc(b1-3)Gal(b1-4)GlcNAc(b1-3)Gal(b1-4)GlcNAc(b1-3)Gal(b1-4)GlcNAc(b1-3)Gal(b1-4)GlcNAc(b1-2)Man(a1-3)[Gal(b1-4)GlcNAc(b1-3)Gal(b1-4)GlcNAc(b1-3)Gal(b1-4)GlcNAc(b1-3)Gal(b1-4)GlcNAc(b1-3)Gal(b1-4)GlcNAc(b1-2)Man(a1-6)]Man(b1-4)GlcNAc(b1-4)[Fuc(a1-6)]GlcNAc
# Summary of the method: as §1
# [20] = biological target: Gal(b1-4)GlcNAc(b1-3)Gal(b1-4)GlcNAc(b1-3)Gal(b1-4)GlcNAc(b1-3)Gal(b1-4)GlcNAc(b1-3)Gal(b1-4)GlcNAc(b1-2)[Gal(b1-4)GlcNAc(b1-3)Gal(b1-4)GlcNAc(b1-3)Gal(b1-4)GlcNAc(b1-3)Gal(b1-4)GlcNAc(b1-3)Gal(b1-4)GlcNAc(b1-6)]Man(a1-6)[Gal(b1-4)GlcNAc(b1-3)Gal(b1-4)GlcNAc(b1-3)Gal(b1-4)GlcNAc(b1-3)Gal(b1-4)GlcNAc(b1-3)Gal(b1-4)GlcNAc(b1-2)Man(a1-3)]Man(b1-4)GlcNAc(b1-4)[Fuc(a1-6)]GlcNAc
# Summary of the method: as §1
# [21] = biological target: Gal(b1-4)GlcNAc(b1-3)Gal(b1-4)GlcNAc(b1-3)Gal(b1-4)GlcNAc(b1-3)Gal(b1-4)GlcNAc(b1-3)Gal(b1-4)GlcNAc(b1-3)Gal(b1-4)GlcNAc(b1-2)Man(a1-3)[Gal(b1-4)GlcNAc(b1-3)Gal(b1-4)GlcNAc(b1-3)Gal(b1-4)GlcNAc(b1-3)Gal(b1-4)GlcNAc(b1-3)Gal(b1-4)GlcNAc(b1-3)Gal(b1-4)GlcNAc(b1-2)Man(a1-6)]Man(b1-4)GlcNAc(b1-4)GlcNAc
# Summary of the method: as §1
# [22] = biological target: Gal(b1-4)GlcNAc(b1-3)Gal(b1-4)GlcNAc(b1-3)GalNAc
# Summary of the method: as §1
# [23] = biological target: Gal(b1-4)GlcNAc(b1-3)Gal(b1-4)GlcNAc(b1-3)[Gal(b1-4)GlcNAc(b1-3)Gal(b1-4)GlcNAc(b1-6)]GalNAc
# Summary of the method: as §1
binder,measurement,setting,value
B1,glycan array binding signal (z-score),[1],-0.54
same,glycan array binding signal (z-score),[2],-0.083
same,glycan array binding signal (z-score),[3],-1.06
same,glycan array binding signal (z-score),[4],-0.203
same,glycan array binding signal (z-score),[5],1.74
same,glycan array binding signal (z-score),[6],0.299
same,glycan array binding signal (z-score),[7],2.45
same,glycan array binding signal (z-score),[8],-0.039
same,glycan array binding signal (z-score),[9],1.89
same,glycan array binding signal (z-score),[10],-0.165
same,glycan array binding signal (z-score),[11],-0.376
same,glycan array binding signal (z-score),[12],-0.453
same,glycan array binding signal (z-score),[13],-0.45
same,glycan array binding signal (z-score),[14],-0.132
same,glycan array binding signal (z-score),[15],-0.1
same,glycan array binding signal (z-score),[16],-0.311
same,glycan array binding signal (z-score),[17],0.636
same,glycan array binding signal (z-score),[18],0.79
same,glycan array binding signal (z-score),[19],-0.042
same,glycan array binding signal (z-score),[20],0.356
same,glycan array binding signal (z-score),[21],1.27
same,glycan array binding signal (z-score),[22],0.049
same,glycan array binding signal (z-score),[23],0.287

# Looked up one by one from the entries so far, 2 records:
binder,measurement,setting,value
B1,glycan array binding signal (z-score),[17],0.636
same,glycan array binding signal (z-score),[18],0.79
